{
  "sequences": {"note": "Sequences of proteins named here, by UniProt entry; tags and fusion partners are left off. A change or cut given only in a name is not applied to a line headed by its entry.", "UniProt P51450": "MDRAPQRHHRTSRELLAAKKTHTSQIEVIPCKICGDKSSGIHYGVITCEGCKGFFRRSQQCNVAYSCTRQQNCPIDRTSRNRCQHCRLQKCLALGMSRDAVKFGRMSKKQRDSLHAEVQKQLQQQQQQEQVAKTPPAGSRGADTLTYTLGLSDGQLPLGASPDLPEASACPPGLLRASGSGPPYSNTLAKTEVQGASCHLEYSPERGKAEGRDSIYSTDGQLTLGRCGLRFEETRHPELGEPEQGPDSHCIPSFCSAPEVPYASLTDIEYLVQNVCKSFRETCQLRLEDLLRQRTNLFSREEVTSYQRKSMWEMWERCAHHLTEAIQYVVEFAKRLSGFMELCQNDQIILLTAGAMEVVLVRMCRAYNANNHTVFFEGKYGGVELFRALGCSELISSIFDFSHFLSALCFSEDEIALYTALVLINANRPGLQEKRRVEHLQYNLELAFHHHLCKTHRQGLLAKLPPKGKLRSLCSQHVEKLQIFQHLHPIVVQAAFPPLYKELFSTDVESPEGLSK"},
  "source": "PubChem BioAssay AID2551",
  "about": "(National Center for Advancing Translational Sciences (NCATS), 2010)",
  "note": "About 17,000 (5.5%) of roughly 310,000 compounds were called active. Inconclusive means that the source gave no clear call. Such entries were picked first, then a sample of the others. Calls follow the shape of the dose curve; as a rule, active = well fitted inhibition curve with a large enough effect; inconclusive = small, poorly fitted or top-dose-only effect, or effect the other way; inactive = no such curve, though single readings can be large or run the other way. A potency beside an inconclusive call is a rough fit, not a confirmed value. Potency is read from the fitted curve at half-maximal effect.",
  "data": [
    {"target": "Nuclear receptor ROR-gamma (Mus musculus) (UniProt P51450)", "assay": "qHTS for inhibitors of ROR gamma transcriptional activity; also: nearly all actives have a fitted effect of over 60% in size", "conditions": "Drosophila S2 Gal4-RORgamma UAS-luciferase reporter, 20 h; series mostly up to 53.6 µM", "how_it_was_run": "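A Gal4/UAS one-hybrid system in insect cells: metallothionein-promoter Gal4–ROR gamma fusion plus Photinus luciferase reporter. Copper sulfate 700 uM final, 20 hr ambient incubation, luminescent detection after 10 min with reagent.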", "values": [
      {"smiles": "CC(C)(C)c1ccc(/C=C2\\Oc3cc(OC(=O)N4CCOCC4)ccc3C2=O)cc1", "Potency": "inactive"},
      {"smiles": "Cc1ccc(CN2CCN(Cc3ccc(-n4cccn4)cc3C)CC2CCO)cc1", "note": "(stereo unspecified)", "Potency": "inconclusive: 12.6 µM [activator, single point]"},
      {"smiles": "COc1cc(/C=N/n2c(COc3ccccc3)n[nH]c2=S)cc(OC)c1OC(C)=O", "Potency": "inactive"},
      {"smiles": "Cc1ccc(NC(=S)N2CCC(c3ccc(C)cc3)C2)cc1", "note": "(stereo unspecified)", "Potency": "active: 10 µM"},
      {"smiles": "O=C(CCc1c[nH]c2ccccc12)NC(Cc1ccccc1)C(=O)O", "note": "(stereo unspecified)", "Potency": "inactive"},
      {"smiles": "Cc1nc2ccc(NC(=O)N3CCCCC3)cc2nc1C", "Potency": "inactive"},
      {"smiles": "O=C(CN(c1cc(C(F)(F)F)ccc1Cl)S(=O)(=O)c1ccccc1)NCc1cccnc1", "Potency": "inactive"},
      {"smiles": "NC(=O)c1ccccc1N/C=C/C(=O)c1ccc(Cl)cc1Cl", "Potency": "active: 0.631 µM"},
      {"smiles": "CC(=O)N1CCN(c2ccc(NCc3ccc(C)s3)cc2)CC1", "Potency": "inconclusive: 35.5 µM [activator, single point]"},
      {"smiles": "Cc1cc(C)cc(OCc2ccc(C(=O)N3N=C(C(F)F)CC3(O)C(F)F)o2)c1", "note": "(stereo unspecified)", "Potency": "inconclusive: 22.4 µM [inhibitor, single point]"},
      {"smiles": "Cc1ccc(Nc2nnc(-c3ccccc3N)o2)cc1C", "Potency": "inconclusive: 0.251 µM [inhibitor, full curve]"},
      {"smiles": "Oc1[nH]c2ccccc2c1N=NC(=S)N1CCOCC1", "Potency": "active: 0.1 µM"},
      {"smiles": "Cc1cc(C)n2c(SCc3c(C)noc3C)nnc2n1", "Potency": "inconclusive: 0.1 µM [activator, single point]"},
      {"smiles": "Cc1ccc(NS(=O)(=O)c2ccc(Cl)c(C(=O)Nc3ccccc3-c3nc4ccccc4[nH]3)c2)cc1C", "Potency": "inconclusive: 25.1 µM [activator, single point]"},
      {"smiles": "COc1cccc(CNS(=O)(=O)c2ccc(N3CCCC3=O)cc2)c1", "Potency": "inconclusive: 11.2 µM [activator, partial curve]"},
      {"smiles": "C=CCNc1nc2c(c(=O)[nH]c(=O)n2C)n1Cc1cccc(C)c1", "Potency": "inconclusive: 0.355 µM [inhibitor, single point]"},
      {"smiles": "COc1ccc(NC(=S)NCCc2ccc(Cl)cc2)c(OC)c1", "Potency": "active: 4.47 µM"},
      {"smiles": "COC(=O)C(C)NS(=O)(=O)c1ccc(NC(C)=O)cc1", "note": "(stereo unspecified)", "Potency": "inactive"},
      {"smiles": "O=C(c1cc(COc2cccc(C(F)(F)F)c2)on1)N1CCSCC1", "Potency": "inconclusive: 5.01 µM [activator, partial curve]"},
      {"smiles": "CCOC(=O)c1c(CSC(=N)N)n(-c2ccc(Br)cc2)c2cc(Br)c(OC(C)=O)cc12", "Potency": "inconclusive: 35.5 µM [inhibitor, single point]"},
      {"smiles": "Cc1ccc2cc(CCNC(=O)c3ccc(C)c([N+](=O)[O-])c3)c(=O)[nH]c2c1", "Potency": "inconclusive: 0.398 µM [activator, partial curve, poor fit]"},
      {"smiles": "COc1cccc(-c2cc(C(=O)Nc3c(C)nn(Cc4ccccc4C)c3C)no2)c1", "Potency": "inconclusive: 12.6 µM [activator, partial curve]"},
      {"smiles": "COc1cc(NC(=O)c2ccc(C)cc2C)ccc1NC(=O)c1cccs1", "Potency": "inactive"},
      {"smiles": "CCn1cc(C(=O)O)c(=O)c2cc(F)c(N/N=C/c3ccccc3)cc21", "Potency": "inactive"},
      {"smiles": "Cc1scc(C(=O)N/N=C/c2ccc(Cl)s2)c1C", "Potency": "active: 14.1 µM"},
      {"smiles": "Cc1nc2sc3c(c2c(=O)n1NC(=O)CCBr)CCCC3", "Potency": "inactive"},
      {"smiles": "Cc1cc(NC(=O)CCCC(=O)N(CC(=O)NCCc2ccccc2)Cc2ccc(F)cc2)no1", "Potency": "inconclusive: 35.5 µM [inhibitor, single point]"},
      {"smiles": "COc1ccc(N2CCN(C(=O)c3ccc4[nH]c(C)c(C)c4c3)CC2)cc1", "Potency": "inconclusive: 11.2 µM [activator, partial curve]"},
      {"smiles": "Cc1occc1C(=O)N/N=C/C(Br)=C/c1ccccc1", "Potency": "inconclusive: 1.12 µM [activator, partial curve]"},
      {"smiles": "Cc1cccn2c(=O)c3cc(C(=O)NCC4CCCO4)c(=N)n(C4CCCC4)c3nc12", "note": "(stereo unspecified)", "Potency": "inconclusive: 0.0251 µM [activator, full curve, poor fit]"},
      {"smiles": "CCCCN1CC(O)=C(c2nc3ccccc3[nH]2)C1=N", "Potency": "inconclusive: 5.01 µM [inhibitor, single point]"},
      {"smiles": "Cc1ccc(-c2cn(-c3ccc(SC(F)F)cc3)c3[n+]2CCC3)cc1", "Potency": "inactive"},
      {"smiles": "CCc1nnc(NC(=O)c2ccc(Cl)c(S(=O)(=O)N3CCc4ccccc4C3)c2)s1", "Potency": "inactive"},
      {"smiles": "CCOC(=O)N1CCN(C(=O)c2cc(COc3ccc4ncccc4c3)on2)CC1", "Potency": "inconclusive: 22.4 µM [inhibitor, single point]"},
      {"smiles": "COc1ccc(-c2n[nH]c(=S)n2/N=C/C=C/c2ccccc2OC)cc1", "Potency": "active: 7.08 µM"},
      {"smiles": "C=CCn1c(=O)/c(=C\\c2ccsc2)s/c1=C(/C#N)C(=O)NCCN1CCOCC1", "Potency": "inconclusive: 5.62 µM [inhibitor, single point]"},
      {"smiles": "CCOc1cc(/C=C(\\C#N)C(=O)Nc2cccc(C(=O)O)c2)ccc1OCc1ccc(Br)cc1", "Potency": "inactive"},
      {"smiles": "Cc1cc(/C=N/Nc2nc(N)ncc2[N+](=O)[O-])c(C)n1-c1cccc(C(F)(F)F)c1", "Potency": "active: 6.31 µM"},
      {"smiles": "COc1cccc(/C=N/Nc2ccnc(=O)[nH]2)c1O", "Potency": "active: 3.98 µM"},
      {"smiles": "O=C(Cc1ccc(Cl)cc1)N1CCC2(CC1)NCCc1[nH]cnc12", "Potency": "inactive"},
      {"smiles": "CC1CCN(CCCNC(=O)c2coc3nc4ccccc4nc23)CC1", "Potency": "inconclusive: 3.98 µM [activator, single point]"},
      {"smiles": "CC1=CC(C)(C)N2C(=O)C3(SCC(=O)N3c3ccc(O)cc3)c3cc(C)cc1c32", "note": "(stereo unspecified)", "Potency": "inactive"},
      {"smiles": "COc1ccc(C(=O)Nc2ccc(Oc3ncnc4sc(-c5ccccc5)cc34)cc2)cc1OC", "Potency": "inconclusive: 0.0794 µM [activator, full curve, poor fit]"},
      {"smiles": "CCN1CCc2c(C#N)c(N3CCOCC3)nc(N3CCOCC3)c2C1", "Potency": "inconclusive: 35.5 µM [inhibitor, single point]"},
      {"smiles": "CCc1nnc(NC(=O)CSc2nc(-c3ccccc3)cc(-c3ccc(F)cc3)c2C#N)s1", "Potency": "inconclusive: 7.08 µM [inhibitor, full curve, poor fit]"},
      {"smiles": "Cc1ccc(C)c(NC(=O)/C(C#N)=C/c2cn(CC(=O)NCc3ccco3)c3ccccc23)c1", "Potency": "inconclusive: 14.1 µM [inhibitor, partial curve]"}
    ]}
  ]
}
